Results are given in words; binding and its absence hold for the method and conditions named. Binding seen in cells or lysates may run through a third protein. Some binding calls cover weakened binding; strength is not graded here.
How the values were obtained:
Experiment in all cases: co-IP
[1] = biological target: Bcl-2 (human (endogenous in SH-SY5Y)) (UniProt P10415)
[2] = biological target: TOMM20 (human (endogenous in SH-SY5Y)) (UniProt Q15388)
[3] = biological target: T1, protein tyrosine phosphatase interacting protein 51 (human (endogenous in SH-SY5Y)) (UniProt Q96TC7)
T1 sequence: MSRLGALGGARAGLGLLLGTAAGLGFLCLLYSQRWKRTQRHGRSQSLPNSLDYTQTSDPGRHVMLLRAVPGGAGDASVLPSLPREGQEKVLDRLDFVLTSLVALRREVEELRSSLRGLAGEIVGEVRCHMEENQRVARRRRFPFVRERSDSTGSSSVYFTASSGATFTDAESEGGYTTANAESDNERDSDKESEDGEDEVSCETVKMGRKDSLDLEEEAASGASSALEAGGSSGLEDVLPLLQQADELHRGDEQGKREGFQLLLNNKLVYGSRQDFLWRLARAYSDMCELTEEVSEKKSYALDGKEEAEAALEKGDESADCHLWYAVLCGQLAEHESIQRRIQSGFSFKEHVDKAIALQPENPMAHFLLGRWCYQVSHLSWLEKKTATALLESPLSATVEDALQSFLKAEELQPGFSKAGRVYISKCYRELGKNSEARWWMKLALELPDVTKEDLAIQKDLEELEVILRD

By UniProt entry, the sequences of proteins in these tests, tags left out. Residues count along the entry.
UniProt P10415: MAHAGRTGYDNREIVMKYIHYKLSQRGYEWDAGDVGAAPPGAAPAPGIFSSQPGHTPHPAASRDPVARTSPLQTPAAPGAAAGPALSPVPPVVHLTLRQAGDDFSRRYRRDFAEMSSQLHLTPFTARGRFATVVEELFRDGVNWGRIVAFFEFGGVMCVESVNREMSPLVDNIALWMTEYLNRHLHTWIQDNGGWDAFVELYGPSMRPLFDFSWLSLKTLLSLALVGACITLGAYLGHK
UniProt Q15388: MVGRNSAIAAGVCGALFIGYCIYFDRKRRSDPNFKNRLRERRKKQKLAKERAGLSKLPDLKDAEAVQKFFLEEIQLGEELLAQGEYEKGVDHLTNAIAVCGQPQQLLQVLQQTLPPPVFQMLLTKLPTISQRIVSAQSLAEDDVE
UniProt P05067, residues 672-770: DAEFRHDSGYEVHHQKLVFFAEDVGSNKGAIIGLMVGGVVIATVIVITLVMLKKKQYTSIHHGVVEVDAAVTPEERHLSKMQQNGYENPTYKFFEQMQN
UniProt P04150: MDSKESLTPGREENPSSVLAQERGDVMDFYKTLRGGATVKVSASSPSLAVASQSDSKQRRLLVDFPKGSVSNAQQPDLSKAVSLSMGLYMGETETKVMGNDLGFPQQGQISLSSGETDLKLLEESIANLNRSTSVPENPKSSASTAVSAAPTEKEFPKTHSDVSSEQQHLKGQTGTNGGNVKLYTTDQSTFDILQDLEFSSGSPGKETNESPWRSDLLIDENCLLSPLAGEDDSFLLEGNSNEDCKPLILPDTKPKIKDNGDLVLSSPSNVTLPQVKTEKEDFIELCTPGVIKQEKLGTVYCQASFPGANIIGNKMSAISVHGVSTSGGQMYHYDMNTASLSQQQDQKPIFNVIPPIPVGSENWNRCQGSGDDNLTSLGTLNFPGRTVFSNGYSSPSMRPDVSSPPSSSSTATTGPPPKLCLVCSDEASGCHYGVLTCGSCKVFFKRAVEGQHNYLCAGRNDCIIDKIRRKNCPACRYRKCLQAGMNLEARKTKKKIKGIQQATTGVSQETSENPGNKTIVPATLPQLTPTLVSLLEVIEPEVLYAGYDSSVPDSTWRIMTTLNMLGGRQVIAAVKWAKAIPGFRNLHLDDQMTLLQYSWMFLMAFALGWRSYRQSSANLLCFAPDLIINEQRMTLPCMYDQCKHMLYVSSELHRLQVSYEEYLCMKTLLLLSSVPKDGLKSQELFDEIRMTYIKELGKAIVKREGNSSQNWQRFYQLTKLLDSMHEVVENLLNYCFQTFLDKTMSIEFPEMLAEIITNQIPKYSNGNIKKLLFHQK
UniProt O95292: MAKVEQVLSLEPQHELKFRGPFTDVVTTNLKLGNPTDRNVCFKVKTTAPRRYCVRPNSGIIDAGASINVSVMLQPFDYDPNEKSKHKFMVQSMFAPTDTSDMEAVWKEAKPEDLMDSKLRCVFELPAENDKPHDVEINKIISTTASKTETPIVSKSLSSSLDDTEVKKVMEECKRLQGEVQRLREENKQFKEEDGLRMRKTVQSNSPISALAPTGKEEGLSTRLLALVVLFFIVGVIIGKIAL

[4] = biological target: C99 (human (endogenous in SH-SY5Y)) (UniProt P05067)

TOMM20 (from UniProt Q15388 1-145)
binding [1]: binds

glucocorticoid receptor (from UniProt P04150 1-777)
binding [2]: binds
binding [1]: binds

vesicle-associated protein B (from UniProt O95292 1-243)
binding [3]: binds
binding [4]: binds
